Source: article PMC7655804

Molecular target: ferroportin from Philippine tarsier (Carlito syrichta / Tarsius syrichta) (Carlito syrichta (Tarsius syrichta, Philippine tarsier))
Assay: SEC; purified TsFpn alone on SRT-3C SEC-300 column; 20 mM HEPES pH 7.5, 150 mM NaCl, 1 mM DDM; both purified

## ferroportin from Philippine tarsier (Carlito syrichta / Tarsius syrichta) (from UniProt A0A1U7U6F1 1-572)
  binding: no binding

Results are given in words; binding and its absence hold for the method and conditions named.
